In patent publication US6388116B1, “Near infrared absorbing compound” (Nisshinbo Industries, Inc., priority 1999, dated 2002):

Assay: absorption spectrum of aqueous solution
Assay type: physicochemical
Details: 20 mg/ml in ion-exchanged water, FIG. 1

copper salt of phytic acid [Example 1]
absorption in the region of 400-600 nm (visible light): does not substantially show absorption
wavelength range showing absorption (near infrared): 750-1100 nm
